Measurements reported in US6576263B2, “Delivery systems using preformed biodegradable polymer compositions and methods” (3M Innovative Properties Company, priority 2000, dated 2003).
At least one structure is not confirmed: it was looked up by name or label, or the drawing left a doubt.

Experiment: Release of tetracycline from alginate/drug complex in albumin/PEG-(SS)2 plug
Format: physicochemical
Conditions: over a 5 hr period; alginate/tetracycline in albumin/PEG-(SS)2 plug, PBS pH 7.4, room temperature; not corrected for tetracycline breakdown

CN(C)[C@@H]1C(O)=C(C(N)=O)C(=O)[C@@]2(O)C(O)=C3C(=O)c4c(O)cccc4[C@@](C)(O)[C@H]3C[C@@H]12 [tetracycline]
tetracycline released: about 70%
